Data published in US11780880B2, “High-activity memory-improving derivative peptide and use thereof” (Jilin Agricultural University, priority 2021, dated 2023).
Not every detail of the peptide structures is certain; ends, links or a residue may be inferred. Peptide text beside a SMILES is read from it.

What was measured:
[1] = system: scopolamine-induced memory impairment model mice; experiment: Morris water maze (place navigation and probe trial); assay type: in vivo, Male C57BL/6N mice
Procedure: In vivo studies were performed in accordance with the Guide for the Care and Use of Laboratory Animals published by the […]. Male C57BL/6N mice weighing 25-30 g were purchased from Liaoning Changsheng Biotechnology Co., Ltd. (Benxi, China). Mice were housed at a stable temperature (22±1° C.) under a 12 h/12 h light/dark cycle. The mice were given access to standard diet and water ad libitum. […]
A circular pool for Morris water maze (1,200 mm in diameter) was filled with warm water at 20±2° C., while a platform (65 mm diameter) was hidden in the Southwest (SW) quadrant 1 cm below the water surface. A mouse was gently placed in the Northeast (NE) quadrant facing the pool wall, the swimming trajectory of the mouse was recorded by the image acquisition system, and the time was measured for 120 s. The time it took to find the platform in the SW quadrant within 120 s was recorded as the latency, while the mouse that reached the platform was allowed to sit on the platform for 10 s and then returned to the holding cage. […] Subsequently, the time from the mice being placed in the water to finding the platform was analyzed and calculated according to the data acquisition system (see FIG. 2A). […]
After the place navigation was completed, the platform hidden in the water was taken out. A mouse was gently placed in the Northeast (NE) quadrant facing the pool wall, the swimming trajectory of the mouse was recorded by the image acquisition system, and the time was measured for 90 s. According to the data acquisition system, the time spent in the target quadrant (see FIG. 2B) and the frequency of original platform crossing (see FIG. 2C) within 90 s were analyzed and calculated on the mouse. […]

[2] = ABTS free radical scavenging assay; assay type: physicochemical; conditions: concentration of 100 μM
Procedure: (1) ABTS free radical scavenging assay: Equal volumes of a 7 mmol/L ABTS aqueous solution and a 2.49 mmol/L potassium persulfate aqueous solution were mixed and left to stand in the dark for 12 h to obtain an ABTS free radical stock solution, which was stored at 4° C. When in use, the stock solution was diluted with 5 mmol/L PBS until the absorbance of the solution was 0.700±0.002 at 734 nm, and an ABTS free radical working solution was prepared. Separately, 10 μL of each of the aqueous solutions of derivative peptides with a concentration of 100 μM was added to a 96-well plate, while glutathione (GSH) of the same concentration was used as a control; these solutions reacted with 190 μL of ABTS free radical working solution accurately for 6 min, and absorbance values (A1) were measured at a wavelength of 734 nm using a microplate reader. The calculation formula for scavenging rate is as follows: […]
where A0 is the absorbance value that replaces the derivative peptide solution with distilled water;
A1 is the absorbance value of the solution adding a derivative peptide or GSH; and
A2 is the absorbance value of the solution using 5 mmol/L PBS instead of the ABTS free radical working solution.

[3] = Oxygen radical antioxidant capacity (ORAC) assay; assay type: physicochemical; conditions: 100 μM aqueous solutions
Procedure: (2) ORAC assay: (1) On a 96-well black plate, 25 μL each of PBS, Trolox standard solutions (12.5, 25, 50, and 100 μM) and aqueous solutions of five derivative peptides (100 μM) was added. The 96-well plate was placed and shaken in a microplate reader preheated for 30 min for 5 s, and incubated at 37° C. for 10 min. To each well, 150 μL each of FL working solution was added using a multi-channel pipette, and the plate was shaken for 5 s and incubated at 37° C. for 20 min. To each well, 25 μL each of AAPH was quickly added using the multi-channel pipette, and the plate was shaken for 5 s, followed by reading. The fluorescence intensity was continuously measured at an excitation wavelength of (485±20) nm and an emission wavelength of (530±20) nm. The whole system was held at 37° C., and the fluorescence intensity was measured every 2 min. […] The measurement was performed until the fluorescence intensity reached 5% of the initial fluorescence intensity (60 cycles were set in this assay). The relative fluorescence intensity is calculated by the area under the fluorescence decay curve (AUC) as follows: AUC=0.5×[2×(f0+f1 . . . +fn-1+fn)−f0−fn]×Δt
(1) In the formula, fn is the relative fluorescence intensity at the n-th measurement point; and Δt is the interval between adjacent time points, namely 2 min.
(2) The measurement results are expressed as ORAC values. […]

SMILES: NCCCC[C@H](NC(=O)CNC(=O)[C@H](CO)NC(=O)[C@H](Cc1ccc(O)cc1)NC(=O)[C@@H](N)Cc1c[nH]c2ccccc12)C(=O)O [WYSGK, Trp-Tyr-Ser-Gly-Lys] (H-WYSGK-OH; N-terminus and C-terminus assumed)
- escape latency compared with the model group ([1]; place navigation, 5-day training, FIG. 2A): shorter escape latency
- time spent in target quadrant compared with the model group ([1]; probe trial, within 90 s, FIG. 2B): significant decreases
- frequency of original platform crossing compared with the model group ([1]; probe trial, within 90 s, FIG. 2C): significant decreases
- ABTS free radical scavenging rate [2]: 70.47%
- ORAC value [3]: 5,473.16 μmol TE/g
